Data from patent US20120322060A1, “DIAGNOSIS AND MONITORING TREATMENT OF PSYCHIATRIC DISEASES WITH SPADIN AND RELATED METHODS” (CENTRE NATIONAL DE LE RECHERCHE SCIENTIFIQUE - CNRS -, priority 2011, published 2012).
Results are given in words; binding and its absence hold for the method and conditions named. Binding seen in cells or lysates may run through a third protein. Some results given as binding are weak or reduced against the parent protein; the word gives no strength.

Protein sequences, listed by entry. Tags and fused reporters are not part of them. Residues count along the entry.
UniProt P97438: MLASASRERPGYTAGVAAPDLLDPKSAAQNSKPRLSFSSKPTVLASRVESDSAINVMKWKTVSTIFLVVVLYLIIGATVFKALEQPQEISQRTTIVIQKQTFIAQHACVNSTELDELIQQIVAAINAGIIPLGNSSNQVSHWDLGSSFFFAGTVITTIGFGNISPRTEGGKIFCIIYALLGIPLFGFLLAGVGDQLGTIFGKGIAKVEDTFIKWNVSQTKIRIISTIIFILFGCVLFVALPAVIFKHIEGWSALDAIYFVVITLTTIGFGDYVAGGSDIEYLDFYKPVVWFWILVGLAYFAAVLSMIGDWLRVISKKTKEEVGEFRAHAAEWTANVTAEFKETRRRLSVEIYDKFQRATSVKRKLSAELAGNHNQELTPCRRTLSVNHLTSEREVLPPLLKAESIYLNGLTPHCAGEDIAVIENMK
UniProt Q6PHU5, residues 74-825: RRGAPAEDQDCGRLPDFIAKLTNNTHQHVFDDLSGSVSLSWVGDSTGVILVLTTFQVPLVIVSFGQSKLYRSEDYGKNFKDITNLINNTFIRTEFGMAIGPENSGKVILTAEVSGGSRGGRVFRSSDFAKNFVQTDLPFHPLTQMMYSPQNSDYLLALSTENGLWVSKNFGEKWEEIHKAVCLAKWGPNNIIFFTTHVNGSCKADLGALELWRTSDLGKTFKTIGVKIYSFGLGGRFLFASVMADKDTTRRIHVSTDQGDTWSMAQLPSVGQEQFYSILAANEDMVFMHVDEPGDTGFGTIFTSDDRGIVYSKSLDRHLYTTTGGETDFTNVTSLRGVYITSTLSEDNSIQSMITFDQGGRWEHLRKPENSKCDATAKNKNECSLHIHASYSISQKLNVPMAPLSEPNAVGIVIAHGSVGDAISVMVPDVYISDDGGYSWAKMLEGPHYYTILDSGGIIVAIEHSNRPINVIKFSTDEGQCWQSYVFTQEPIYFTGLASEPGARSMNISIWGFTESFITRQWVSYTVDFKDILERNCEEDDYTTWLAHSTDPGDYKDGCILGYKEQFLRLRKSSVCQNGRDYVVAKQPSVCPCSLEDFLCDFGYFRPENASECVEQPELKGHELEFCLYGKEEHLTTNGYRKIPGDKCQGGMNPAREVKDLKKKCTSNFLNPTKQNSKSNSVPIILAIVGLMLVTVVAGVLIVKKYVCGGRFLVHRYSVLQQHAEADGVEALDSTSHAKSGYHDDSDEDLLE

Biological target: TREK-1 channel (endogenous, mouse neurons) (mouse) (UniProt P97438)
Test: co-immunoprecipitation and Western blot, mouse cortical neurons

NTSR3/Sortilin (endogenous, mouse cortical neurons) (from UniProt Q6PHU5 74-825) (receptor)
binding: binds
